Primary screen of a compound library

Sequences of proteins named here, by UniProt entry; tags and fusion partners are left off. Residues count along the entry.
UniProt P9WPC5, whole entry: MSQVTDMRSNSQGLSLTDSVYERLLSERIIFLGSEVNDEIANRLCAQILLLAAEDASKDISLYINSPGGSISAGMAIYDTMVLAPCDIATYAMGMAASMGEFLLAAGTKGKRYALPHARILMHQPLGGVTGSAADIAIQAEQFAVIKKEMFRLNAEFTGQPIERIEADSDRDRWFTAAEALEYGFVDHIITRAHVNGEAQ
UniProt P9WPC3, whole entry partner: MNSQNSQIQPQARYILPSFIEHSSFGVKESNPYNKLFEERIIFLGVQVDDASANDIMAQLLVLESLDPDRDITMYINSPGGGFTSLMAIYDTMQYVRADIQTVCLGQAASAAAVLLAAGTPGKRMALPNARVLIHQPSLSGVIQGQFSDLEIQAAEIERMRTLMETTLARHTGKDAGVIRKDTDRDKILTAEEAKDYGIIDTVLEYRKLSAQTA
UniProt I6X8D2, whole entry: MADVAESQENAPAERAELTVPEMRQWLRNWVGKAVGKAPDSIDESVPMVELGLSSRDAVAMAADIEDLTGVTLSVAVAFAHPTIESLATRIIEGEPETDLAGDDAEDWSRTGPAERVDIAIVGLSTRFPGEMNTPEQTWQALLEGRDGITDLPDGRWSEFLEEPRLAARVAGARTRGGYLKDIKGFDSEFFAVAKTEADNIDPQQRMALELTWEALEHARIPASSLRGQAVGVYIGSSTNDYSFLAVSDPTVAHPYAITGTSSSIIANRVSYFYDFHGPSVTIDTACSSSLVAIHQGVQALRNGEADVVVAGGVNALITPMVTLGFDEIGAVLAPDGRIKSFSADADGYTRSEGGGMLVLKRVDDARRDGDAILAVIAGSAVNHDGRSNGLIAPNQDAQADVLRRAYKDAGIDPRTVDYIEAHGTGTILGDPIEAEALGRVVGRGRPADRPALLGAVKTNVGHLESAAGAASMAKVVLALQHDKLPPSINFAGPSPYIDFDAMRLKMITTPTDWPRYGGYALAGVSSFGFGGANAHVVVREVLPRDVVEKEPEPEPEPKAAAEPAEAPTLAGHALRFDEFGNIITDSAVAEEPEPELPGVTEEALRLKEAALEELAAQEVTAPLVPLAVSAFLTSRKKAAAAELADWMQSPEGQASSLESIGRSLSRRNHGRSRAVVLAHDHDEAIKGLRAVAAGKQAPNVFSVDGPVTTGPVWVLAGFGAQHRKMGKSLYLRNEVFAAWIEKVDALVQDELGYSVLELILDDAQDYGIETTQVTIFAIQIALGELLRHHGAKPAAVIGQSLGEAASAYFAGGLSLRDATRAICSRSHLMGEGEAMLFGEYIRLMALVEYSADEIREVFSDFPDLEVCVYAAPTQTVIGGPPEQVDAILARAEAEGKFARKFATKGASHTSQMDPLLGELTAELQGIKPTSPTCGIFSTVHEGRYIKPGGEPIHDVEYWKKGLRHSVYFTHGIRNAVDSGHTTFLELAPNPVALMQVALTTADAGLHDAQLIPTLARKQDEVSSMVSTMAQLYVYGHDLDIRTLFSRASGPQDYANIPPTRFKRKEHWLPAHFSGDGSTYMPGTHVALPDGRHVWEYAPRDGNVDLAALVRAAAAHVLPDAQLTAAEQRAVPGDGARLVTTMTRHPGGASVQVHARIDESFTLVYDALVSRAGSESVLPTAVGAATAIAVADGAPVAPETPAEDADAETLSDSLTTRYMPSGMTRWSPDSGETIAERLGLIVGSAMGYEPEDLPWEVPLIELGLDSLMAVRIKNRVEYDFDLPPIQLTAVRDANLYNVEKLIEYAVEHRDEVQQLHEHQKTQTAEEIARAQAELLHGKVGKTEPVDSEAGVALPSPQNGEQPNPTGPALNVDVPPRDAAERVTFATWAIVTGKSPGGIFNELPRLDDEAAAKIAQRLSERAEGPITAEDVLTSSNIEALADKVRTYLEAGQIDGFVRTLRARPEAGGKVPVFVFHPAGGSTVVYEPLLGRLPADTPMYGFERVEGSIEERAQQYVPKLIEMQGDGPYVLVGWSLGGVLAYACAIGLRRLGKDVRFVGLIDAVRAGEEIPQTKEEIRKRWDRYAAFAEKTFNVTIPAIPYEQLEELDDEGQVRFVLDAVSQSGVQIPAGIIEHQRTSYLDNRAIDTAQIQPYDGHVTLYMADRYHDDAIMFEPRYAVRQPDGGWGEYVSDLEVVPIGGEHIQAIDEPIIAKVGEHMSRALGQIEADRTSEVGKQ
UniProt Q8IDJ8, 1-583: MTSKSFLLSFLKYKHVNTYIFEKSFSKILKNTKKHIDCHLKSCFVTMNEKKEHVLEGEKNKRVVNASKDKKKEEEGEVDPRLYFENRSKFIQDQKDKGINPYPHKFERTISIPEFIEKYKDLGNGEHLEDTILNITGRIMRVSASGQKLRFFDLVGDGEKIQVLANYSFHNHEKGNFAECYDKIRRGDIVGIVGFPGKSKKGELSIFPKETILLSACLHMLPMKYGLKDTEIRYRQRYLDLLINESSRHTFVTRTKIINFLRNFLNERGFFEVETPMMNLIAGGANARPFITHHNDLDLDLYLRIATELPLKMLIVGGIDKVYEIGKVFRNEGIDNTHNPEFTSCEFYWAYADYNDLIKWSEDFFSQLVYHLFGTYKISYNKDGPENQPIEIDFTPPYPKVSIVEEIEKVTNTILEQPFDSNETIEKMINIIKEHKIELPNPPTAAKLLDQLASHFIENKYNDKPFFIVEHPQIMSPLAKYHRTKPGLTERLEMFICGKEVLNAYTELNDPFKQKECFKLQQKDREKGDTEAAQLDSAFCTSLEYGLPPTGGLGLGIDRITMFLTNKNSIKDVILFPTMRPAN

The values are deposited in ChEMBL (CHEMBL3988442, “University of Dundee, Small-Polar-MMV Screening Library” (2021)).

A: 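Protease assay of ClpP1P2, read by the AMC dye that it sets free. Target: ClpP1P2, Mycobacterium tuberculosis (UniProt P9WPC5 and UniProt P9WPC3). Compounds at 50 µM. Direction is inferred from only a few compounds that gave an IC50; most scored high, so higher reads as stronger inhibition. Most other retested compounds had strongly negative values. Size under these conditions: about 69,000 compounds, about 10 of them at 50% or above in at least one test.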
B: 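Cell assay of Leishmania donovani living inside macrophages; the read-out is not stated. Concentration: 30 µM. The record gives no direction; compounds that gave an IC50 in retests scored well above the rest, so higher reads as stronger inhibition. About 69,000 compounds were tested under these conditions; 1.5% (about 1,000) showed 50% or more at least once.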
C: 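Enzyme assay of the thioesterase domain of polyketide synthase 13; the read-out is not stated. Target: Polyketide synthase Pks13, Mycobacterium tuberculosis (UniProt I6X8D2). Compounds at 30 µM. Higher reads as stronger inhibition (inferred from which compounds were picked for retests). About 67,000 compounds were tested under these conditions; 0.46% (about 300) showed 50% or more at least once.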
D: 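Enzyme assay of the cytosolic lysyl-tRNA synthetase in 384-well plates, read by luminescence. Target: Lysine-tRNA ligase, Plasmodium falciparum 3D7 (UniProt Q8IDJ8). Concentration: 30 µM. Direction is inferred from only a few compounds that gave an IC50; most scored high, so higher reads as stronger inhibition. Size under these conditions: about 69,000 compounds, about 49 of them at 50% or above in at least one test.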
E: 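Assay of Toxoplasma gondii numbers, read through their beta-galactosidase reporter with a colour substrate. Tested at 10 µM. The record gives no direction; the compounds picked for IC50 retests had high values, so higher reads as fewer parasites. About 67,000 compounds were tested under these conditions; 0.38% (about 260) showed 50% or more at least once.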

Results are given as percent effect. The record does not define 0% and 100%; most values in the screen are far below 50% and negative numbers occur (in some assays of this library far below -100). Compounds were drawn at random from those tested, without regard to their results. Two or more numbers in one place are separate tests of the same structure; such repeats can differ widely. A dash means the value is not listed here; it may have been measured.

SMILES	A	B	C	D	E
Cc1cc(C)n(CC2CN(c3nnc(C)c(C)c3C#N)CCO2)n1 (stereo not given)	-31.73	27.67	-9.338	0.8391	-18.1
O=C(c1ccc2nccn2c1)N1CCC(CCn2cccn2)CC1	-6.377	0.1753	-25.78	1.805	-5.11
CCS(=O)(=O)NCC(=O)Nc1cc(CC(C)(C)C)n[nH]1	-10.52	-13.95	4.328	12.77	0.3409
Cc1nc(C)n(CC2CCCCN2Cc2nc(-c3ccco3)no2)n1 (stereo not given)	-16.85	16.4	-16.17	-3.654	2.199
Cc1nc(CN2CCOC(Cn3cncn3)C2)nc2ccccc12 (stereo not given)	9.328	10.53	-12.16	2.53	7.856
CN(Cc1ccsc1)Cc1ccc(C2CCCCO2)o1 (stereo not given)	1.401	24.15	-16.17	5.264	-26.79
c1cn(CC2CCOCC2)c(-c2cc(CN3CCCC3)cs2)n1	0.4362	14.76	-	3.876	-1.218
CN1CCN(C(=O)C2(NC(N)=O)CCCCC2)Cc2ccccc21	-3.826	8.462	-15.28	6.513	13.2
COc1ccccc1-c1nnc([C@H]2CCN(C(C)=O)C2)o1	-1.934	15.61	-	0.9418	13
O=C(CCS(=O)(=O)C1CCCC1)N1CCCC(n2ccnc2)C1 (stereo not given)	16.95	-36.27	-21.53	0.516	-34.59
Cc1nccn1-c1cncc(C2CCCN2Cc2cccnc2)n1 (stereo not given)	5.726	-18.56 and -2.4	-18.31	1.535	9.509
O=C(O)C(F)(F)F.O=C(O)C(F)(F)F.[H][C@@]12CN(Cc3cccnc3)C[C@]1([H])[C@@H](OC)CCN2S(=O)(=O)N(C)C	-	17.9	-	-	-6.097
CCOCC(=O)NC(C)Cc1ccccc1Br (stereo not given)	-10.5	25.08	-56.79	0.4318	-7.27
Cc1cc(Oc2ccc(NC(=O)C3CC3)cc2)cc(C2CCNCC2)n1	-11.67	-	9.057	1.418	-
Cc1cnn(CCC(=O)N2CCCC(c3noc(C)n3)C2)c1 (stereo not given)	-0.02166	5.239	-0.7923	0.5947	5.689
CC(C)N(C(=O)c1csc(-c2ccoc2)n1)C1CCOCC1	-3.859	13.26	-6.739	5.837	-1.535
Cc1cccc(-c2cc(C(=O)O)sn2)c1	9.264	-0.01015	-17.36	4.376	7.069
COc1cc(OC)nc(N2CCCC(c3nccn3CCN(C)C)C2)n1 (stereo not given)	0.008364	-14.2	5.372	4.691	18.74
O=C(NCc1ccc2c(c1)OCCO2)N1CCC(CO)CC1	2.448	14.49	52.67	3.043	5.061
CC(CNC(=O)c1ccc(F)cc1I)N1CCCC1 (stereo not given)	16.43	2.52	-23.3	-2.855	0.06705
CCSCc1nc(O)c2nnn(C3CCN(Cc4ccco4)CC3)c2n1	-8.226	-10.15	0.8354	-0.6834	-17.48
Cc1cccc(CN2C[C@@H]3CN(C(=O)c4ccco4)C[C@@H]3C2=O)n1	-2.708	-	-24.07	-0.9198	-
Cc1nn(C)c(Cl)c1C1CCCN1C(=O)c1cnn(C)c1C1CC1 (stereo not given)	3.23	20.87	-8.734	-1.295	-2.698
O=C(O)C(F)(F)F.[H][C@@]12CN(Cc3nccs3)C[C@H](C(=O)NCC3CC3)[C@]1([H])CCO2	-	17.59	-	-	-2.479
CC(C)OCCCN(Cc1cnn(C)c1)Cc1ccccn1	-0.004076	-	-7.551	0.1051	-
CC(C)C(=O)N1CCC2(CN(CC3CCCC3)C2)C1.O=C(O)C(F)(F)F	-	21.84	-	-	3.181
Cc1cc(CNC(=O)CC2CCN(C(C)C)CC2)n(C)n1	-10.82	-11.33	-10.88	1.255	14.08
[H][C@]12CC[C@]([H])(CN(Cc3[nH]cnc3C)C1)N(Cc1ccc(C)o1)C2	-	-13.01	-	-	-23.56
CCN1CCN(c2ccc(C(=O)NCc3cc(C)no3)cc2F)CC1	-2.639	-25.38	-	7.202	2.533
COc1ccc(-c2nnc(C(C)N3CCOCC3)o2)cc1 (stereo not given)	-5.684	18.61	-1.476	3.349	-0.3793
CC(C)c1noc(CS(=O)(=O)Cc2nc(C(C)C)no2)n1	0.8515	-7.212	2.283	0.8747	-37.78
C[C@@H]1CN(S(C)(=O)=O)C[C@]12CCN(Cc1cccnc1)C2=O	5.814	-	-45.15	-5.069	-
CN1CCN(CC2CC2)C(=O)c2cnc(N3CCC(CO)CC3)nc21	-1.001	-11.24 and 23.28	1.426	1.485	3.689
O=C(Nc1ccccc1F)C1=NN(c2ccccc2)C(=O)CN1	-2.86	-15.12	-16.44	2.762	-5.869
CCn1ccnc1CN(C)c1cc(N(C)C)ncn1	-6.61	19.35	-4.807	-1.742	-1.805
CCCS(=O)(=O)NC(C)C(=O)NCc1ccnc(N2CCCC2)c1 (stereo not given)	-32.72	23.63	1.658	0.2894	10.22
Cc1nc(C(=O)N2CCN(c3ccc(Cl)c(Cl)c3)CC2)cs1	-5.524	22.03	-100.3	1.956	9.572
N#Cc1ccccc1C(=O)N1C[C@H]2CC[C@@H]1CN(Cc1ccccc1)C2	-18.38	-	5.575	6.264	-
CN(c1cccnn1)C1CCN(C(=O)c2ccc3c(c2)COC3)CC1	-3.94	17.83	-9.047	1.704	3.388
O=c1[nH]c2ccccc2cc1CNCCCN1CCOCC1	-4.698	5.783	2.7	0.9928	3.575
Cn1cc(S(=O)(=O)NC(CO)Cc2c[nH]c3ccccc23)cn1 (stereo not given)	-0.1615	19.73	-41.25	11.41	3.449
[H][C@@]12CO[C@@H](CNS(C)(=O)=O)[C@]1([H])CCN(C(=O)c1cnccn1)C2	-	-4.978	-	-	-1.577

The last 5 entries again:

| SMILES | A | B | C | D | E |
|---|---|---|---|---|---|
| `N#Cc1ccccc1C(=O)N1C[C@H]2CC[C@@H]1CN(Cc1ccccc1)C2` | -18.38 | - | 5.575 | 6.264 | - |
| `CN(c1cccnn1)C1CCN(C(=O)c2ccc3c(c2)COC3)CC1` | -3.94 | 17.83 | -9.047 | 1.704 | 3.388 |
| `O=c1[nH]c2ccccc2cc1CNCCCN1CCOCC1` | -4.698 | 5.783 | 2.7 | 0.9928 | 3.575 |
| `Cn1cc(S(=O)(=O)NC(CO)Cc2c[nH]c3ccccc23)cn1` (stereo not given) | -0.1615 | 19.73 | -41.25 | 11.41 | 3.449 |
| `[H][C@@]12CO[C@@H](CNS(C)(=O)=O)[C@]1([H])CCN(C(=O)c1cnccn1)C2` | - | -4.978 | - | - | -1.577 |